In US11046730B2, “Antimicrobial compositions” (The Regents of the University of California, priority 2016, dated 2021):
Some of these results come from one statement about several compounds together.

System: Gram-positive bacteria
Test: minimum inhibitory concentration (MIC) assays against four types of Gram-positive bacteria
Type: cell-based
Settings: four Gram-positive bacteria studied; homologues as TFA salts
Text: The antibiotic activity of Arg10-teixobactin and homologues was investigated in minimum inhibitory concentration (MIC) assays against four types of Gram-positive bacteria, as well as control substances, in order to elucidate the importance of various functionalities within teixobactin analogues and guide the rational design of new antimicrobial compounds (as summarized in Tables 1, 2 and 3 (FIGS. 5A, 5B, and 5C respectively). These MIC studies used vancomycin as a positive control and the Gram-negative bacterium E. coli as a negative control.

Row | SMILES | MIC
1 | CC[C@H](C)[C@H](NC(=O)[C@@H](Cc1ccccc1)NC)C(=O)N[C@@H](CO)C(=O)N[C@H](CCC(N)=O)C(=O)N[C@@H](C(=O)N[C@H](C(=O)N[C@@H](CO)C(=O)N[C@@H]1C(=O)N[C@@H](C)C(=O)N[C@@H](CCCNC(=N)N)C(=O)N[C@@H]([C@@H](C)CC)C(=O)O[C@@H]1C)[C@@H](C)CC)[C@@H](C)CC [L-Thr8,Arg10-teixobactin] | > 32 µg/mL
2 | CC[C@H](C)[C@H](NC(=O)[C@H](CCCNC(=N)N)NC(=O)[C@H](C)NC(=O)[C@H](NC(=O)[C@H](CO)NC(=O)[C@@H](NC(=O)[C@H](NC(=O)[C@@H](CCC(N)=O)NC(=O)[C@H](CO)NC(=O)[C@@H](NC(=O)[C@@H](Cc1ccccc1)NC)[C@@H](C)CC)[C@@H](C)CC)[C@@H](C)CC)[C@H](C)O)C(=O)O [seco-Arg10-teixobactin] | > 32 µg/mL
